Laboratory results: PubChem BioAssay AID2685 (National Center for Advancing Translational Sciences (NCATS), 2010)
The other results are listed elsewhere or left out. These are further read-outs of the screen, such as a control signal, another cell line or another target. No call is given for them. The list favours compounds with an active or inconclusive main result. The note in brackets gives the kind of curve behind each potency; many fits are weak.

Experiment: qHTS Assay for Lipid Storage Modulators in Drosophila S3 Cells;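 on cell number change: cells counted by Cell Tracker Red CMTPX staining in the red channel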
Details: BODIPY lipid droplet fluorescence, 18-24 h; for cell number change: measured here: cell count max response, cells fed with added oleic acid
Method in brief: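 Drosophila S3 cells loaded with oleic acid (400 uM, as added) and compounds at several concentrations; lipid droplets imaged by 488-nm laser-scanning cytometry, 500–530 nm intensity and object ratio to cell channel. Percent activity normalized to 20 uM Triacsin C.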

[1] = measured here: lipid fluorescence (Fed channel) AC50, cells fed with added oleic acid
[2] = measured here: cell number channel AC50, cells fed with added oleic acid

Structure (SMILES) | cell number change | AC50 [1] | AC50 [2]
COc1ccccc1-n1cnnc1SCC(=O)Nc1ccccc1 | 4.2% | 29.1 µM [rising, single point] | 
O=C(CN(Cc1ccco1)S(=O)(=O)c1ccccc1)N/N=C/c1ccccc1C(=O)O | -2.63% | 0.116 µM [falling, full curve, poor fit] | 
Cc1ccc(S(=O)(=O)N(C)CCCC(=O)N2CCOCC2)cc1 | -20.8% | 0.82 µM [falling, full curve] | 
O=C(NCCN1CCOCC1)c1ccc(CSc2nc3ccncc3n2Cc2ccc(F)cc2)cc1 | -0.578% | 0.58 µM [rising, full curve, poor fit] | 
CN(CC(=O)Nc1cccc(F)c1)C(=O)/C=C/c1cc(Br)ccc1OC(F)F | 93.9% |  | 16.4 µM [rising, partial curve]
COc1ccc(-c2cc(-c3ccccc3)n[nH]2)c(O)c1 | -44.9% |  | 0.82 µM [falling, full curve, poor fit]
CCC(C)/C(C)=N/NC(=O)CSc1nc2ccccc2[nH]1 (configuration not stated) |  | 1.46 µM [rising, partial curve] | 1.46 µM [rising, single point]
CN1C(=O)N(C)c2cccc3cccc1c23 | 25.4% |  | 
O=C(Nc1nc(-c2cccnc2)cs1)c1ccccc1Cl |  | 6.51 µM [rising, single point] | 1.46 µM [rising, single point]
Nc1nnc(-c2cc3c(ccc4ccccc43)oc2=O)s1 | 16.7% | 0.116 µM [rising, full curve, poor fit] | 0.103 µM [rising, full curve, poor fit]
COC(=O)C1CCN(CC(=O)N(C)c2c(N)n(Cc3ccccc3)c(=O)[nH]c2=O)CC1 | 8.54% |  | 
COc1ccc(/C=C/C(=O)OC(C)C(=O)c2ccccc2)cc1OC (configuration not stated) |  | 9.2 µM [rising, partial curve] | 
CCOC(=O)[C@@H]1[C@H]2COc3ccc(Br)cc3[C@@H]2N2C(=O)N(c3ccc(C)cc3)C(=O)[C@]12C | 27.2% | 6.51 µM [rising, single point] | 
CC(C)(C)c1ccc(C(=O)Nc2ccc(S(N)(=O)=O)cc2)cc1 | -49.7% | 18.4 µM [falling, single point] | 20.6 µM [falling, single point]
COc1ccc(Cn2nnnc2CN(Cc2cc3cc(C)ccc3[nH]c2=O)C2CCCC2)cc1 |  | 0.651 µM [rising, single point] | 
COc1ccc(C2=NN(c3nc4ccccc4s3)C(=O)/C2=C\N(C)C)cc1 | -0.705% |  | 
COc1ccccc1NC(=O)NCCCCc1ccccc1 | -21% | 35.5 µM [falling, single point] | 
CCc1nc(SCC(=O)Nc2ccccc2C)n[nH]1 | -16.8% |  | 4.61 µM [rising, single point]
CSc1ccccc1C(=O)NCCOc1cccc(C)c1 | 11.8% |  | 
COc1ccc(-n2c(SCC(=O)NCc3ccco3)nc3sc4c(c3c2=O)CCN(C)C4)cc1 | 15.6% | 29.1 µM [falling, single point] | 

Structure (SMILES) | cell number change | AC50 [1] | AC50 [2]
CC(C)(CN1CCNCC1)NS(=O)(=O)c1ccc(Cl)cc1 | -15.9% | 0.366 µM [rising, partial curve, poor fit] | 0.461 µM [falling, single point]
CCOc1ccc(NC(=S)N2CCN(S(=O)(=O)c3ccccc3)CC2)cc1 | 13.3% | 5.17 µM [rising, full curve] | 
Cc1ccccc1OCC(O)CNC1CCC(NCC(O)COc2ccccc2C)CC1 (configuration not stated) | -59.4% | 0.13 µM [falling, full curve, poor fit] | 29.1 µM [falling, single point]
CCC(C)Nc1nc(N)c([N+](=O)[O-])c(NCc2ccccc2)n1 (configuration not stated) | 20.7% | 0.259 µM [falling, full curve] | 0.184 µM [rising, single point]
COc1ccccc1Nc1ncnc2c1c(C)c(C)n2CCO | 15.5% | 7.31 µM [falling, single point] | 
Cc1cccc(NC(=O)CSc2nnc(NC(=O)C3CCC3)s2)c1 | 0.42% |  | 
O=C(CN(C(=O)Cn1nnc(-c2cccs2)n1)c1ccc2c(c1)OCCO2)NC1CCCCC1 | -9.04% |  | 0.00517 µM [falling, full curve, poor fit]
O=C(c1ccc2c3c(cccc13)CC2)C1CCCN(Cc2ccncc2)C1 (configuration not stated) | -12.1% | 16.4 µM [falling, single point] | 
Cc1cccc(N2CCN(S(=O)(=O)c3c(C)nc4scc(C)n4c3=O)CC2)c1C | 15.4% | 5.17 µM [rising, single point] | 
COc1ccccc1-c1nnc(SCC(=O)N2CCCCC2)o1 | 30% | 8.2 µM [rising, partial curve, poor fit] | 0.082 µM [rising, full curve, poor fit]
CCOc1ccc2c(c1)C(c1ccc(C)cc1)=NNC(c1ccc(OC)cc1)=N2 | 11.8% |  | 1.16 µM [rising, partial curve]
CC(C)(C)N1CC(C(=O)Nc2ccc(C#N)cc2)CC1=O (configuration not stated) | 16.2% | 23.1 µM [falling, single point] | 
CC1(C)C=C(c2ccc(O)cc2)CC(C)(C)N1 | -9.09% | 29.1 µM [rising, single point] | 
c1ccc2[nH]c(SCC3CCCCO3)nc2c1 (configuration not stated) | 20.1% |  | 0.291 µM [rising, partial curve, poor fit]
c1ccc(Cn2ncc3c(N4CCN(C(c5ccccc5)c5ccccc5)CC4)ncnc32)cc1 | 83.6% | 23.1 µM [rising, partial curve] | 10.3 µM [rising, partial curve]
CC1CCN(C(=O)c2[nH]cnc2C(=O)N2CCN(C(=O)OC(C)(C)C)CC2)CC1 | 12% |  | 
O=C1CC(c2ccc3c(c2)OCO3)c2cc3c(cc2N1)OCCO3 (configuration not stated) | -39.1% | 29.1 µM [falling, single point] | 18.4 µM [falling, single point]
CNCCOc1ccccc1OC(C)C | 1.96% | 0.231 µM [rising, full curve] | 
COC(=O)c1oc(-c2ccccc2)nc1C | 6.85% | 4.11 µM [rising, single point] | 6.51 µM [rising, single point]
COc1cc2c(cc1/C=C/C(=O)O)OC(C)C2 (configuration not stated) | 20.4% | 0.731 µM [rising, partial curve, poor fit] | 

Sorted by molar mass (ascending): some entries from above
Structure (SMILES) | cell number change | AC50 [1] | AC50 [2]
COc1ccccc1Nc1ncnc2c1c(C)c(C)n2CCO | 15.5% | 7.31 µM [falling, single point] | 
CCC(C)Nc1nc(N)c([N+](=O)[O-])c(NCc2ccccc2)n1 (configuration not stated) | 20.7% | 0.259 µM [falling, full curve] | 0.184 µM [rising, single point]
CCOc1ccc(NC(=S)N2CCN(S(=O)(=O)c3ccccc3)CC2)cc1 | 13.3% | 5.17 µM [rising, full curve] | 

Remaining list, next part.

Structure (SMILES) | cell number change | AC50 [1] | AC50 [2]
COc1cccc(C2C3=C(CCCC3=O)Nc3nc(-c4cc(OC)c(OC)c(OC)c4)nn32)c1 (configuration not stated) | -33.8% | 29.1 µM [falling, single point] | 13 µM [falling, single point]
Cc1nn(C)c(C)c1NC(=O)COc1ccc(Cl)cc1 | -26.6% | 3.66 µM [falling, single point] | 
CO/N=C/c1cn(-c2ccc(Cl)cc2)nn1 | -16.3% |  | 2.59 µM [falling, single point]
COC(=O)C1Cc2ccccc2CN1S(=O)(=O)c1ccc(F)cc1 (configuration not stated) | 14.6% |  | 
COc1ccc(OC)c(NC(=O)COC(=O)C2CCC2)c1 | -16.7% |  | 
C/C(=N/NC(=O)CNC(=O)c1cccc(F)c1)c1ccc2c(c1)CCCC2 | 56.2% | 6.51 µM [rising, single point] | 10.3 µM [rising, partial curve, poor fit]
COCCn1nnnc1C(c1ccc(O)c(OC)c1)N1CCc2ccccc2C1 (configuration not stated) | 10.1% |  | 
CC(C)c1ccc(/C=C2\SC(N3CCOCC3)=NC2=O)cc1 | 11.9% | 32.6 µM [falling, single point] | 
CCOC(=O)c1cnc2ccc(C(=O)OC)cc2c1NCCCN1CCOCC1 | -6.08% | 29.1 µM [falling, single point] | 
COc1cccc(OC)c1C(=O)N1CCNCC1 | 5.47% | 0.651 µM [rising, partial curve, poor fit] | 
CCOC(=O)c1[nH]c(C)c(C(=O)NCCN2CCOCC2)c1C | -17.3% | 2.06 µM [falling, partial curve] | 0.651 µM [falling, full curve]
O=C(/C=C/c1ccc2c(c1)OCCCO2)c1ccc2ccccc2c1O | 73.7% | 18.4 µM [rising, partial curve] | 20.6 µM [rising, single point]
CCOC(=O)c1ccccc1NC(=O)COC(=O)CSCC(=O)Nc1cc(C)on1 | 36.5% |  | 1.64 µM [rising, partial curve]
CN(C)C(=O)c1cn(-c2ccc(Cl)cc2)c(=O)c2ccccc12 | 3.64% |  | 0.731 µM [falling, single point]
OCCn1c(SC2CCCCC2)nc2ccccc21 | 12.2% |  | 0.651 µM [falling, single point]
c1ccc(-c2nc(N3CCNCC3)nc3ccccc23)cc1 | -1.98% | 6.51 µM [rising, single point] | 
Cc1ccc(C2(C)NC(=O)N(CC(=O)Nc3ccccc3N3CCCCC3)C2=O)cc1 (configuration not stated) | 103% | 5.17 µM [rising, partial curve] | 16.4 µM [rising, partial curve]
C/C(=N\NC(=O)c1ccccc1O)c1ccc(NC(=O)c2ccccc2)cc1 | -38.5% | 6.51 µM [falling, single point] | 1.03 µM [falling, full curve]
CCc1ccc(/C=C/c2c[nH]c3ccccc23)[n+](CC)c1 | -27.5% | 16.4 µM [falling, single point] | 

As entered above.
cell number change with O=C(CN(Cc1ccco1)S(=O)(=O)c1ccccc1)N/N=C/c1ccccc1C(=O)O reads -2.63%
cell number change with Nc1nnc(-c2cc3c(ccc4ccccc43)oc2=O)s1 reads 16.7%
